According to the supplement of paper PMC10338343:
± gives the standard deviation. Only a part is listed here, and it is no random draw. Many entries were measured with a wide error.

Experiments:
[1] = system: MILI (PIWIL2) piRISC loaded with piRNA #1 (26 nt); experiment: pre-steady-state target cleavage rate (min^-1); MIWI and MILI are mouse PIWI proteins and EfPiwi is from a freshwater sponge; tags in brackets are library labels; higher = faster piRNA-guided slicing of the target; conditions: guide: piRNA #1 5'p-UGAGGUAGUAGGUUGUAUAGUAUCCA; auxiliary factor: 500 nM mouse GTSF1
Summary of the method: (§1)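 Sequencing of uncleaved targets, normalised to depth and to weakly complementary targets, was the readout of this Cleave-'n-Seq assay. A transcribed, DNA-blocked target RNA library (0.1 nM) was mixed with 1 nM active affinity-purified piRISC carrying one synthetic guide, with or without 500 nM GTSF1 partner protein, in HEPES–potassium acetate buffer at 33 °C for 0–8 or 0–960 min. Three trials were pooled, k3 was capped at 0.0001 min^-1, and a burst-and-steady-state fit gave the pre-steady-state cleavage rate.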

[2] = system: MIWI (PIWIL1) piRISC loaded with piRNA #1 (30 nt); experiment: as above; conditions: guide: piRNA #1 5'p-UGAGGUAGUAGGUUGUAUAGUAUCCAGAGG; auxiliary factor: 500 nM mouse GTSF1
Summary of the method: as §1

Sequence: GGAGACCUAUGAUAUGUACCAACUUCCUCA
- pre-steady-state target cleavage rate [1]: 0.000147 ± 0.015
- pre-steady-state target cleavage rate [2]: 0.000153 ± 0.0092

Sequence: GGAGACCUAUGAUUACAACGUACUACGUCA
- pre-steady-state target cleavage rate [1]: 0.00138 ± 0.0045
- pre-steady-state target cleavage rate [2]: 0.00139 ± 0.0046

Sequence: GGAGUGGAUACUAUACAACCUACUAGGAGA [g6:g26:cont:t1A]
- pre-steady-state target cleavage rate [1]: 0.000669 ± 0.0052
- pre-steady-state target cleavage rate [2]: 0.000559 ± 0.0066

Sequence: GGAGACCUAUGAUAUGUUCCUACUACCUCC [g2:g12:cont:t1C]
- pre-steady-state target cleavage rate [1]: 0.00013 ± 0.021
- pre-steady-state target cleavage rate [2]: 0.000188 ± 0.011

Sequence: GGAGACCUAUGAUAUGAAGCUUCUACCUCA
- pre-steady-state target cleavage rate [1]: 0.000122 ± 0.026
- pre-steady-state target cleavage rate [2]: 0.000152 ± 0.014

Sequence: GGAGACCUAUGAUAUGUAACUACUACCUCA
- pre-steady-state target cleavage rate [1]: 0.000119 ± 0.023
- pre-steady-state target cleavage rate [2]: 0.00016 ± 0.018

Sequence: GGAGACCUAACUAAUGAACCUACUACCUCA
- pre-steady-state target cleavage rate [1]: 0.00355 ± 0.0039
- pre-steady-state target cleavage rate [2]: 0.000177 ± 0.028

Sequence: GGAGACCUAUGAUUACAACCUUCUACCUGA
- pre-steady-state target cleavage rate [1]: 0.000961 ± 0.0044
- pre-steady-state target cleavage rate [2]: 0.000335 ± 0.006

Sequence: GGAGACCUAUGAUAUCAACCAACUACCUGA
- pre-steady-state target cleavage rate [1]: 0.000321 ± 0.0085
- pre-steady-state target cleavage rate [2]: 0.000273 ± 0.0058

Sequence: GGAGUGGAUACUAUACAACCUACUAGGUCA
- pre-steady-state target cleavage rate [1]: 0.000449 ± 0.0046
- pre-steady-state target cleavage rate [2]: 0.000437 ± 0.0054

Sequence: GGAGACCUAUCUAUAGAACCUAGUACCUCA
- pre-steady-state target cleavage rate [1]: 0.00211 ± 0.0024
- pre-steady-state target cleavage rate [2]: 0.0363 ± 0.0089

Sequence: GGAGACCUAUGAUAACAACCUAGUACGUCA
- pre-steady-state target cleavage rate [1]: 0.000198 ± 0.03
- pre-steady-state target cleavage rate [2]: 0.000203 ± 0.0096

Sequence: GGAGACCUAUGAUUACUACGUACUACCUCA
- pre-steady-state target cleavage rate [1]: 0.00234 ± 0.0027
- pre-steady-state target cleavage rate [2]: 0.000314 ± 0.0069
